Experimental data as given in patent US8216974B2, “Fluorine-containing organosulfur compound and pesticidal composition comprising the same” (Sumitomo Chemical Company, Limited, priority 2007, dated 2012).
Some of these results come from one statement about several compounds together.

What was measured:
brown rice planthopper [1] = assay: Test Example 2: rice plants absorb test solution from bottom of cup, brown rice planthopper; assay type: in vivo, Nilaparvata lugens; settings: 55.6 ppm, 45 ml absorbed from the bottom of the cup; 30 first-instar larvae released; counted after 6 days at 25° C.
brown rice planthopper [2] = assay: Test Example 1: foliar spray on rice plants, brown rice planthopper; assay type: in vivo, Nilaparvata lugens; settings: 500 ppm, sprayed 20 ml/cup on rice plants; 30 first-instar larvae released; counted after 6 days at 25° C.

| SMILES | number of the parasitic pests (brown rice planthopper [1]) | number of the parasitic pests (brown rice planthopper [2]) |
| --- | --- | --- |
| NC(=O)C(F)(c1cc(F)c(F)c(F)c1)S(=O)(=O)CCC(F)(F)F (stereo not shown) [present compound (1), 2-fluoro-2-(3,3,3-trifluoropropylsulfonyl)-2-(3,4,5-trifluorophenyl)acetamide] | ≤ 3 | ≤ 3 |
| CC(C(N)=O)(c1cc(F)c(F)c(F)c1)S(=O)(=O)CCC(F)(F)F (stereo not shown) [present compound (2), 2-(3,4,5-trifluorophenyl)-2-(3,3,3-trifluoropropylsulfonyl)propaneamide] | ≤ 3 | ≤ 3 |
| NC(=O)C(F)(c1ccc(Cl)c(F)c1)S(=O)(=O)CCC(F)(F)F (stereo not shown) [present compound (3), 2-(4-chloro-3-fluorophenyl)-2-fluoro-2-(3,3,3-trifluoropropylsulfonyl)acetamide] | ≤ 3 | ≤ 3 |
| NC(=O)C(F)(c1ccc(Cl)cc1)S(=O)(=O)CCC(F)(F)F (stereo not shown) [present compound (4), 2-(4-chlorophenyl)-2-fluoro-2-(3,3,3-trifluoropropylsulfonyl)acetamide] | ≤ 3 | ≤ 3 |
| NC(=O)C(F)(c1ccc(C(F)(F)F)cc1)S(=O)(=O)CCC(F)(F)F (stereo not shown) [present compound (5), 2-fluoro-2-(3,3,3-trifluoropropylsulfonyl)-2-(4-trifluoromethylphenyl)acetamide] | ≤ 3 | ≤ 3 |
| NC(=O)C(SCCC(F)(F)F)c1ccc(Cl)cc1 (stereo not shown) [present compound (6), 2-(4-chlorophenyl)-2-(3,3,3-trifluoropropylsulfanyl)acetamide] | ≤ 3 | ≤ 3 |
| NC(=O)C(c1ccc(Cl)cc1)S(=O)(=O)CCC(F)(F)F (stereo not shown) [present compound (7), 2-(4-chlorophenyl)-2-(3,3,3-trifluoropropylsulfonyl)acetamide] | ≤ 3 |  |
